Values from PubChem BioAssay AID1508597 (Cure First, 2020)

Screen: 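Genes whose silencing sensitises or protects ovarian cancer cells against rucaparib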 (primary screen)
Cell system: human ovarian carcinoma lines grown from tumours: OCI-P5x (papillary serous) and OCI-C5x (clear cell)
Reagent: siRNA pool against human genes, 1.25 pmol siRNA per well
Timing: 72 h or 96 h, depending on the cell culture
Treatment: rucaparib 20 µM (about IC30) or vehicle, present until read-out
Measured: 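ATP luminescence measured at 72 or 96 h according to the culture, then normalised and expressed as percent viability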
Direction: viability, normalised: higher = more viable cells remaining
Active means: 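a well counts as a hit if its normalised viability is under 80 percent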
Calls: active = viability under 80%; inactive = viability 80% or more
Here is an unselected part of about 2,100 reagents. 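Calls flag viability under 80% in either arm, not effects specific to rucaparib; the reference for percent is not stated.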 Not stated in the record: the 100% reference.

For PIM3 (Pim-3 proto-oncogene, serine/threonine kinase), rucaparib or vehicle Rucaparib, cell line OCI-C5x (clear cell), technical replicate 1 the deposit lists viability, normalised (%) = 54.4; active.
PIM3 (Pim-3 proto-oncogene, serine/threonine kinase), rucaparib or vehicle Rucaparib, cell line OCI-C5x (clear cell), technical replicate 2 showed viability, normalised (%) = 30.8; active.
PIM3 (Pim-3 proto-oncogene, serine/threonine kinase), rucaparib or vehicle Rucaparib, cell line OCI-C5x (clear cell), technical replicate 3 showed viability, normalised (%) = 47.9; active.
PIM3 (Pim-3 proto-oncogene, serine/threonine kinase), rucaparib or vehicle Rucaparib, cell line OCI-P5x (serous), technical replicate 1 showed viability, normalised (%) = 95.9; inactive.
PIM3 (Pim-3 proto-oncogene, serine/threonine kinase), rucaparib or vehicle Rucaparib, cell line OCI-P5x (serous), technical replicate 2 gave viability, normalised (%) = 77.5; active.
PIM3 (Pim-3 proto-oncogene, serine/threonine kinase), rucaparib or vehicle Rucaparib, cell line OCI-P5x (serous), technical replicate 3 gave viability, normalised (%) = 79.7; active.
PIM3 (Pim-3 proto-oncogene, serine/threonine kinase), rucaparib or vehicle Vehicle, cell line OCI-C5x (clear cell), technical replicate 1 gave viability, normalised (%) = 30.8; active.
With PIM3 (Pim-3 proto-oncogene, serine/threonine kinase), rucaparib or vehicle Vehicle, cell line OCI-C5x (clear cell), technical replicate 2, the values are viability, normalised (%) = 53.3; active.
PIM3 (Pim-3 proto-oncogene, serine/threonine kinase), rucaparib or vehicle Vehicle, cell line OCI-C5x (clear cell), technical replicate 3 scored viability, normalised (%) = 34.3; active.
For PIM3 (Pim-3 proto-oncogene, serine/threonine kinase), rucaparib or vehicle Vehicle, cell line OCI-P5x (serous), technical replicate 1 the deposit lists viability, normalised (%) = 70; active.
For PIM3 (Pim-3 proto-oncogene, serine/threonine kinase), rucaparib or vehicle Vehicle, cell line OCI-P5x (serous), technical replicate 2, the values are viability, normalised (%) = 67.4; active.
PIM3 (Pim-3 proto-oncogene, serine/threonine kinase), rucaparib or vehicle Vehicle, cell line OCI-P5x (serous), technical replicate 3 gave viability, normalised (%) = 71.1; active.
